Weaker means in comparison with the reference protein, sequence or condition of that experiment. For some of these results: Construct, isoform or probe ends are uncertain for at least one entry.
Tests used:
[1] = molecular target: SHOC1 570-1111 (Homo sapiens) (UniProt Q5VXU9); assay: EMSA; details: 2 mM Mg2+, 20 mM Tris-HCl pH 7.4, 1 mM DTT, 2 mM MgCl2, 100 mM NaCl, 20 ul, 10 min at 37 C, 8% PAGE in 1x TAE, recombinant protein, residues 570-1111, label: 5'-32P on #1
[2] = molecular target: SHOC1 570-1041 (Homo sapiens) (UniProt Q5VXU9); assay: EMSA; details: 2 mM Mg2+; 20 mM Tris-HCl pH 7.4, 1 mM DTT, 2 mM MgCl2, 100 mM NaCl, 20 ul, 10 min at 37 C; 8% PAGE in 1x TAE; recombinant protein; residues 570-1041; label: 5'-32P on #1; single-stranded DNA

Chains of the proteins cited; added tags and fusions are not shown. Residues count along the entry.
UniProt Q5VXU9, 570-1111: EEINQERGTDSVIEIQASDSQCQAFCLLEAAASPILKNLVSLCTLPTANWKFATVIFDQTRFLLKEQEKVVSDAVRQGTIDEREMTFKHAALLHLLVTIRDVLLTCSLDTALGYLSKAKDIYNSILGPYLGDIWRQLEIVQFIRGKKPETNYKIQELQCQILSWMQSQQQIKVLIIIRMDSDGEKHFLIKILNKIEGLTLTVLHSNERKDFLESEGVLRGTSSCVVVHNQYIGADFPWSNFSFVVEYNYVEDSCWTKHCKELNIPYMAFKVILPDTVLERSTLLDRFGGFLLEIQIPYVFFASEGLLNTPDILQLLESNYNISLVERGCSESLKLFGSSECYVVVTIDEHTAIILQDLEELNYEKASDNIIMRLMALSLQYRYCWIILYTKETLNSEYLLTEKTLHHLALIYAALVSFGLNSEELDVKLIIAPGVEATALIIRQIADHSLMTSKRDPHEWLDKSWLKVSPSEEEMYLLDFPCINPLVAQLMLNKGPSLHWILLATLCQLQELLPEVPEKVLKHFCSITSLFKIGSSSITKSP
UniProt Q5VXU9, 570-1041: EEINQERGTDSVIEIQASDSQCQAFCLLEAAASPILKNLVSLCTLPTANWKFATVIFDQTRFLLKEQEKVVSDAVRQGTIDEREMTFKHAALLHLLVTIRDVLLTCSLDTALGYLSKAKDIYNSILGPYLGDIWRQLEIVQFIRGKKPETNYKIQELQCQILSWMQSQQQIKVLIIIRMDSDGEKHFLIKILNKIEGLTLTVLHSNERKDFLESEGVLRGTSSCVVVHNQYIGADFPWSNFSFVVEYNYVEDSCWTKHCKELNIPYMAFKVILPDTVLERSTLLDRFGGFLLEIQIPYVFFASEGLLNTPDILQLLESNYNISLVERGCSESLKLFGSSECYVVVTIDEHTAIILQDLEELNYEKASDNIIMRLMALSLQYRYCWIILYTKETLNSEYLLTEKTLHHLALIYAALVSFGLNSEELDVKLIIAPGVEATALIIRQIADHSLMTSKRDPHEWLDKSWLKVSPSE

ACGCTGCCGAATTCTACCAGTGCCTTGCTAGGACATCTTTGCCCACCTGCAGGTTCACCC (double strand) [linear duplex (#1, #5)]
binding result [1]: binds more weakly

ACGCTGCCGAATTCTACCAGTGCCTTGCTAGGACATCTTTGCCCACCTGCAGGTTCACCC / CGATAGTCGGATCCTCTAGACAGCTCCATGTAGCAAGGCACTGGTAGAATTCGGCAGCGT [splayed arm (#1, #4)]
binding result ([1]; folded or branched DNA): binds more weakly

ACGCTGCCGAATTCTACCAGTGCCTTGCTAGGACATCTTTGCCCACCTGCAGGTTCACCC / GGGTGAACCTGCAGGTGGGCAAAGATGTCCTAGCAAGGCACTGGTAGAATTCGGCAGCGT / ACGGCATAAAGCTTGACGATTACAACAGATCATGGAGCTGTCTAGAGGATCCGACTATCG / CGATAGTCGGATCCTCTAGACAGCTCCATGTAGCAAGGCACTGGTAGAATTCGGCAGCGT [Holliday junction (#1, #2, #3, #4)]
binding result ([1]; folded or branched DNA): binds

ACGCTGCCGAATTCTACCAGTGCCTTGCTAGGACATCTTTGCCCACCTGCAGGTTCACCC [single-stranded DNA (#1)]
binding result [2]: binds more weakly
